About 22,000 (6.9%) of roughly 320,000 compounds were called active. This list was built around the results that the source calls inconclusive (neither active nor inactive); the mix of calls is not that of the screen. Calls follow the shape of the dose curve; as a rule, active = well fitted inhibition curve with a large enough effect; inconclusive = small, poorly fitted or top-dose-only effect, or another doubt; inactive = no such curve, though single readings can be large or run the other way. Potencies of inconclusive entries are doubtful fits and often do not repeat.
Experiment: Primary qHTS for delayed death inhibitors of the malarial parasite plastid, 96 hour incubation
Settings: P. falciparum luciferase reporter growth; series mostly up to 28.7 µM
How it was run: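 Erythrocytes infected with luciferase-expressing P. falciparum were dispensed at 2% hematocrit and 0.05% parasitemia (final), then incubated with compounds 96 hours at 37 C in 5% CO2. Luminescence after detection reagent addition reported growth.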
% is scaled to controls: 0 for no effect and ±100 for the full control effect; potency is read from the fitted curve at half-maximal effect.

SMILES	Potency	activity change, negative = inhibition
O=S(=O)(Nc1ccc(Cl)cn1)c1ccc(F)cc1	inconclusive: 11.7 µM [inhibitor, single point]	–
CC(C)c1cccc(C(C)C)c1NC(=O)CCl	inconclusive: 10.4 µM [inhibitor, single point]	–
O=C(CSc1nnc(Cn2c(=O)sc3ccccc32)n1-c1ccccc1)N1CCCCCC1	inconclusive: 18.5 µM [inhibitor, single point]	–
CCc1ccc(CN(C)C(=O)CCc2nnc(COc3ccccc3)o2)cc1	inconclusive: 9.28 µM [inhibitor, single point]	–
O=C(CN1C(=O)NC2(CCCCCC2)C1=O)NCCc1ccccc1	inactive	–
Cc1ccn2c(-c3n[nH]c(=S)n3C)c(C)nc2c1	inactive	–
O=C1/C(=C/c2ccccc2Cl)SC(=S)N1CCC(=O)N1CCCCC1CCO (configuration not stated)	inconclusive: 11.7 µM [inhibitor, single point]	–
O=C(Nc1c(F)cccc1F)C1CCN(C(=O)c2cccs2)CC1	inactive	–
CCCc1cc(=O)oc2cc(OCc3ccc(C(=O)O)cc3)ccc12	inconclusive: 11.7 µM [inhibitor, partial curve, poor fit]	–
O=C1CSC(c2cn(-c3ccccc3)nc2-c2cccs2)N1CC1CCCO1 (configuration not stated)	active: 8.28 µM	–
Cc1c(/C=N/Nc2ccc(C(=O)O)cc2)c2ccccc2n1C	inactive	–
O=C(c1ccc(Cl)c(S(=O)(=O)N2CCOCC2)c1)N(Cc1nnc(-c2ccccc2Cl)o1)C1CC1	inconclusive: 9.28 µM [inhibitor, partial curve]	–
COc1ccc(N(CC(=O)Nc2c(C)n(C)n(-c3ccccc3)c2=O)S(=O)(=O)c2ccccc2)cc1OC	inactive	–
Cc1nn(CCC(=O)N2CCN(S(=O)(=O)c3ccccc3)CC2)c(C)c1C	inconclusive: 5.22 µM [inhibitor, partial curve]	–
O=C(O)Cc1ccc(NC(=O)Nc2cccc3ccccc23)cc1	inconclusive: 18.5 µM [inhibitor, single point]	–
Cc1ccc(S(=O)(=O)N2CCN(C(=O)C(Cc3ccccc3)NC(=O)c3ccccc3)CC2)cc1 (configuration not stated)	active: 8.28 µM	–
O=C(N=C1c2ccccc2CN1c1ccc(F)c(Cl)c1)c1cccnc1Cl	inconclusive: 3.7 µM [inhibitor, partial curve, poor fit]	–
COc1cc(C(CCN2CCCCC2)c2c(OC)cc(OC)c3c(-c4ccccc4)cc(=O)oc23)cc(OC)c1OC (configuration not stated)	active: 5.86 µM	–
Cc1c2cnn(-c3ccccc3)c(=O)c2c(C)n1CCCC(=O)N1CCN(C)CC1	active: 13.1 µM	–
CCCCc1nc(NCc2ccccc2)c(C#N)c2c1CCCC2	active: 5.22 µM	–
COc1ccc(CNC(=O)c2cc(SC)ccc2Cl)cc1OC	–	inactive: 20.9% [at 5.75 µM]
C/C(=N\NC(=O)c1nnn(-c2nonc2N)c1-c1cccs1)c1cccnc1	inconclusive: 18.5 µM [inhibitor, single point]	–
COc1ccc(-c2noc(CNS(=O)(=O)c3ccccc3)n2)cc1	inactive	–
CC1(C)C(C=C(Cl)Cl)C1C(=O)OCc1cccc(Oc2ccccc2)c1 (configuration not stated)	inconclusive: 9.53 µM [inhibitor, partial curve, poor fit]	–

SMILES	Potency	activity change, negative = inhibition
CCCCN1C2=NCCCN2c2cc(C)c(C)cc21	active: 13.1 µM	–
COc1cc(C(C(=O)NCC2CCCO2)N(C(=O)Cn2nnc3ccccc32)c2ccc(C(C)=O)cc2)ccc1O (configuration not stated)	inconclusive: 13.1 µM [inhibitor, single point]	–
COc1cc(OC)cc(-c2c(-c3ccc(F)cc3)c3cc(-c4ccc5cc[nH]c5c4)ccc3n2C)c1	active: 5.22 µM	–
O=[N+]([O-])c1ccc(OCc2cccc(COc3ccc([N+](=O)[O-])cc3)n2)cc1	inconclusive: 9.28 µM [inhibitor, partial curve]	–
CC(=O)c1cccc(OCC(O)CNCC2CCCCC2)c1 (configuration not stated)	inactive	–
COc1ccccc1OCc1nnc(SCC(N)=O)n1-c1ccccc1	inactive	–
CCCCn1c(N)c(C(=O)NCc2cccs2)c2nc3ccccc3nc21	inconclusive: 13.1 µM [inhibitor, single point]	–
CCc1ccccc1NC(=O)c1cc(-c2ccco2)on1	inactive	–
Cc1ccc(N=CC2=C(O)CC(c3ccco3)CC2=O)cc1 (configuration not stated)	inactive	–
COCCN(C(=O)c1csnn1)C(C(=O)NC1CCCCC1)c1ccccc1 (configuration not stated)	inactive	–
O=C1N=C(N2CCN(c3ccccc3)CC2)S/C1=C\c1cn[nH]c1-c1ccccc1	active: 4.15 µM	–
C=CCNC(=O)c1ccccc1NC(=O)Cc1ccccc1[N+](=O)[O-]	inconclusive: 2.33 µM [inhibitor, full curve]	–
COc1cccc(C(=O)NCCS(=O)(=O)N2CCC(C)CC2)c1	inactive	–
Cc1ccc(-n2c(C)nnc2SCC(=O)N(C)c2c(N)n(Cc3ccccc3)c(=O)[nH]c2=O)cc1	inconclusive: 9.28 µM [inhibitor, single point]	–
O=C(CNC(=O)c1ccccc1Cl)N/N=C/c1ccc2c(c1)OCO2	inactive	–
CC1CCN(C(=O)/C=C/c2ccc(C(C)(C)C)cc2)CC1	inactive	–
O=c1nc(N/N=C/C=C/c2ccccc2)cn[nH]1	inconclusive: 0.165 µM [inhibitor, full curve, poor fit]	–
Cc1nn2c(NCc3ccccn3)cc(C(C)C)nc2c1-c1ccccc1	active: 1.65 µM	–
COc1ccccc1NS(=O)(=O)c1cc(NC(=O)C(C)NC(N)=O)ccc1N1CCCC1 (configuration not stated)	inconclusive: 14.7 µM [inhibitor, single point]	–
COc1ccc2c(c1)[nH]c1c(C)nccc12	inconclusive: 18.5 µM [inhibitor, single point]	–
COc1cccc(C(C(=O)NC(C)(C)C)N(C(=O)CCC(=O)Nc2cc(C)on2)C2CC2)c1OC (configuration not stated)	inconclusive: 7.38 µM [inhibitor, partial curve]	–
CCc1nnc(NC(=O)CCN(c2cc(C)cc(C)c2)S(=O)(=O)c2ccc(Cl)cc2)s1	inconclusive: 18.5 µM [inhibitor, single point]	–
CCCC1CCc2c(sc(N)c2C(N)=O)C1 (configuration not stated)	inconclusive: 18.5 µM [inhibitor, single point]	–

Laid out differently: two of the compounds above
SMILES | Potency | activity change, negative = inhibition
COc1cc(C(C(=O)NCC2CCCO2)N(C(=O)Cn2nnc3ccccc32)c2ccc(C(C)=O)cc2)ccc1O (configuration not stated) | inconclusive: 13.1 µM [inhibitor, single point] | –
COc1cc(OC)cc(-c2c(-c3ccc(F)cc3)c3cc(-c4ccc5cc[nH]c5c4)ccc3n2C)c1 | active: 5.22 µM | –

From PubChem BioAssay AID504834 (National Center for Advancing Translational Sciences (NCATS), 2011)
